Data as given in PubChem BioAssay AID602196 (INSERM, 2012).
Test: 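Genes whose knock-down alters cisplatin killing of lung cancer cells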. System: human A549 lung cancer cells. Knock-down reagent: siRNA pair against human genes. Timing: 48 h transfection before cisplatin; time from cisplatin to read-out not stated. Challenge: cisplatin at a dose killing half of control-siRNA cells; exact dose and duration not given. Measurement: 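Shift in cisplatin death relative to control siRNA, from -50 (all cells die) to +50 (no cells die); siRNAs harmful on their own scored 0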. Direction: two-siRNA summed score (-2 to +2): higher = both siRNAs protect from cisplatin killing; -2 means both sensitise. Rule for the call: 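siRNAs harmful alone (LDH or WST-1) get 0; others get +1 for less and -1 for more cisplatin killing; genes are active when the two siRNAs give the same sign, summing to ±2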. Calls: active = both siRNAs shift cisplatin killing the same way; inactive = no consistent shift, or siRNA harmful alone.
The whole screen tested about 23,000 reagents; this is an unselected part. 455 of all reagents (2%) were called active. 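Active includes both protection and sensitisation; some change values fall well beyond the stated -50 to +50 range.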 Entries without a mark were called inactive. Not all columns of the deposit are shown. Not stated in the record: the amount of reagent.

target | two-siRNA summed score (-2 to +2)
PI4KB (phosphatidylinositol 4-kinase beta) | 0
ATP13A1 (ATPase 13A1) | -1
SPATA46 (spermatogenesis associated 46) | 0
NAA60 (N-alpha-acetyltransferase 60, NatF catalytic subunit) | 0
CAMK1D (calcium/calmodulin dependent protein kinase ID) | 0
MS4A8 (membrane spanning 4-domains A8) | 0
KRTAP4-3 (keratin associated protein 4-3) | 0
WEE2-AS1 (WEE2 antisense RNA 1) | 0
DNAJB11 (DnaJ heat shock protein family (Hsp40) member B11) | 0
LOC256453 | 0
CTNNAL1 (catenin alpha like 1) | 0
SHISAL1 (shisa like 1) | 0
SLC22A6 | 0
ANKRD28 (ankyrin repeat domain 28) | 0
FRMPD3 (FERM and PDZ domain containing 3) | 0

Sorted by “two-siRNA summed score (-2 to +2)” (descending): 2 of the entries above.
target | two-siRNA summed score (-2 to +2)
SHISAL1 (shisa like 1) | 0
SLC22A6 | 0

The results go on.
target | two-siRNA summed score (-2 to +2)
ZFAND3 (zinc finger AN1-type containing 3) | 0
BBLN (bublin coiled coil protein) | 0
IL3 (interleukin 3) | 0
RPS3 (ribosomal protein S3) | 0
ARSF (arylsulfatase F) | 0
PPP1R14B (protein phosphatase 1 regulatory inhibitor subunit 14B) | 1
SRPK3 (SRSF protein kinase 3) | 1
ACOT12 (acyl-CoA thioesterase 12) | -1
